Source: patent US20240376556, “BIOSENSORS FOR DETECTING AND/OR NEUTRALIZING BIOAVAILABLE URANIUM AND RELATED U-SENSITIVE GENETIC MOLECULAR COMPONENTS, GENE CASSETTES, VECTORS, GENETIC CIRCUITS, COMPOSITIONS, METHODS AND SYSTEMS” (LAWRENCE LIVERMORE NATIONAL SECURITY, LLC, published 2024)
For part of these data: Where cells or extracts were used, other partners may take part. For part of these data: Protein sequences can lack the tags named with them.

Key:
[1] = tested on: T1, UzcR phosphorylated (UzcR-P) (Caulobacter crescentus NA1000); test: EMSA; settings: purified recombinant protein, protein details: phosphorylated with carbamoyl phosphate, label: 5' 6-FAM
T1 sequence (limits assumed): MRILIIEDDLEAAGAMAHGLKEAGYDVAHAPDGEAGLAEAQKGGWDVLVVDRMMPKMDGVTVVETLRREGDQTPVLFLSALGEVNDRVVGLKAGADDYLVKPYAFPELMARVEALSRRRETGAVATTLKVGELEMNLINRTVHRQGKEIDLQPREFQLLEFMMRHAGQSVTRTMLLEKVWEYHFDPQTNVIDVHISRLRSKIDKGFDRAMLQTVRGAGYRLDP

[2] = tested on: T2, UzcR, native in cells (Caulobacter crescentus NA1000); test: binding assay; settings: ChIP-qRT-PCR in vivo, with or without 40 uM Zn, control region sodA, deltauzcR control; protein in cells; label: 5' 6-FAM
T2 sequence (limits assumed): T1 sequence (limits assumed)

[3] = tested on: UrpR (CCNA_01362, response regulator 1362) (Caulobacter crescentus NA1000); test: EMSA; settings: concentration dependent; 50 nM DNA, 200 mM NaCl, 10 mM MgCl2, 50 ug/ml poly-dI-dC, 37 C; purified recombinant protein; label: 5' fluorescein (6-FAM)
[4] = tested on: T3, UrpR (CCNA_01362), native in cells (Caulobacter crescentus NA1000); test: activity in cells; settings: U-dependent gfp induction; abolished by deletion of CCNA_01362; protein in cells
T3 sequence (limits assumed): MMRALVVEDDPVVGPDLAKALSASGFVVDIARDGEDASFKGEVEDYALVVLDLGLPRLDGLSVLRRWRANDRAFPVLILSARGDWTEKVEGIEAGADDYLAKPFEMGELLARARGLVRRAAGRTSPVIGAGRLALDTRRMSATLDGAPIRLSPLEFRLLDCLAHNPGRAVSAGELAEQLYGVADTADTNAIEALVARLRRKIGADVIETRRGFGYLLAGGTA

[5] = tested on: T2, UzcR, native in cells (Caulobacter crescentus NA1000); test: activity in cells; settings: PurcB activity abolished by uzcR deletion; PurcB-gfp 111.5 fold with 20 uM U; protein in cells

Sequence: CCCTTTGCAAACCATATACTCAAACGACCCAAGCAATATGGTCACAAAAACTTCAAACATTACAGACTGTTTAGAATATTAAAGCCCCGTAATTCTCTTAATTACGCGTCATGACTGAGGTGTAACGAGACTTCGCGAGAACCCGAATGTATCCAATATTCATCGGCGCAGCGAACAGCGCCCAGCCAGAGGGATACTTCA (double strand) [PurcA promoter]
- binding result ([1]; shifted complexes): binds
- binding result [2]: binds

Sequence: CCGGACGGTGACCGGCAAACCACCGCTGTCATGAATGCGTTTTGAAGCTTCGCCATAACGCGCCTTGGGTATCCGGTTCGGAACGCGGCGCTTTCGTTGACCTCTGGCCACGGAGAATTCTCCATCCCAAAGAGGGTGTGGCCCAAAGAGGGTGTGGATTTCTCTTCGCGCCACCCGTTTCGTCAGCCGGACGTCAGGTCCAGACGGCTAAGCTAGCTGCGAGACATGAAAACGAGGGGCTCCGCC (double strand) [Pphyt promoter fragment]
- binding result [3]: binds
- activity on this sequence [4]: active

Sequence: GAAGACCCAAGTTTTGCGGTTAATCATTTACGAAGACTGGGCGGGCAGCAGCCCACTCCCAAGCGCCCACCAATTATGACTTCTTTTTCATAGACTTAATTCGACGTCATGAAGCAGTCGTAACGGGTGTTCGCCATCCGACCGCTCTACATCCTCGATCAACGGATCGCCAAGCGACCACCCAAACCGAGGATCAAGACA (double strand) [PurcB promoter]
- activity on this sequence [5]: active

Sequence: GCGGAGATGGATCGCGCGACGGGTCTGAAACAGAGTCAGTTGAGCCAGGCGTGCGGCGATGACTCCACGTTGTTGCCCCGCGGACTTTCCATTCCGCGCTGCCGTTAAATCCCCGTCATTACCGCAATTTAAGTGGTCTCTGGCCCTCCGTCGGTCCAAACCGTAACTCACACAGTCGCGTATGGACTGAACGGAGTAGTC (double strand) [P1968 promoter]
- binding result ([1]; shifted complex): binds
